About 220 (0.063%) of roughly 350,000 compounds were called active. Inconclusive results, whose numbers are uncertain, are shown with a selection of clear calls. Calls follow the shape of the dose curve; as a rule, active = well fitted activation curve with a large enough effect; inconclusive = small, poorly fitted or top-dose-only effect; inactive = no such curve, though single readings can be large or run the other way. Potencies of inconclusive entries are doubtful fits and often do not repeat.
Assay: qHTS for Activators of Integrin-Mediated Alleviation for Muscular Dystrophy; also: nearly all actives have a fitted effect of over 60% in size
Details: alpha7betagal myoblasts, beta-gal FDG fluorescence, 48 h; series mostly up to 38.3 µM
How it was run: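 Alpha7betagal+/- myoblasts (passage 13) were plated 16-24 hr, then exposed to compounds (1:260 dilution of DMSO stock) for 48 hours at 37C. After MPER lysis, β-galactosidase reporter activity was read as FDG fluorescence (ex 480/em 540) after 30 minutes.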
Potency is read from the fitted curve at half-maximal effect.

SMILES	Potency
Cc1ccc(Cl)cc1N1CCN(C(c2ccc(C#N)cc2)c2nnnn2C2CCCC2)CC1 (stereo unspecified)	inconclusive: 28.2 µM [activator, single point]
O=C(NCc1ccncc1)C12CC3CC(CC(C3)C1)C2	inactive
CCc1nn(CC(=O)N(C)C2CCCCC2)c(=O)c2cc3cc(C)ccc3n12	inconclusive: 4.47 µM [activator, single point]
CC(=O)NC1(C(F)(F)F)C(=O)N(Cc2ccccc2)C2=C1C(=O)CC(C)(C)C2 (stereo unspecified)	inactive
O=C(CN1CCCCCC1=O)N1CCN(S(=O)(=O)c2cccs2)CC1	inconclusive: 3.16 µM [activator, single point]
COC(=O)c1cc(S(=O)(=O)NCC2CCN(Cc3ccc(F)cc3)CC2)c[nH]1	inconclusive: 5.01 µM [activator, single point]
CCc1nnc(NC(=O)C2CCC2)s1	inconclusive: 5.01 µM [activator, single point]
CCS(=O)(=O)c1nc(S(=O)(=O)c2ccc(Cl)cc2)c(N2CCCC2)s1	inconclusive: 5.01 µM [activator, partial curve, poor fit]
COC(=O)C(C)Nc1cccc(Br)c1 (stereo unspecified)	inconclusive: 3.16 µM [activator, single point]
CCOC(=O)c1ccc(N2CCOCC2)c(NC(=O)c2nccnc2C(=O)O)c1	inconclusive: 5.01 µM [activator, single point]
CC12CCC(C(=O)N3CCC(Cc4ccccc4)CC3)(C(=O)C1=O)C2(C)C (stereo unspecified)	inconclusive: 5.01 µM [activator, single point]
O=C(COc1ccc(Cl)cc1)NCC(=O)N1CCC2(CC1)NCCc1[nH]cnc12	inconclusive: 3.16 µM [activator, single point]
CN(C(=O)C1CCOC1)c1nnc(-c2cccnc2)s1 (stereo unspecified)	inconclusive: 11.2 µM [activator, partial curve, poor fit]
N/C(=N\OC(=O)c1ccccc1Cl)c1ccccn1	inactive
COc1ccc(Nc2cc(C)c3ccc(O)cc3n2)cc1	inactive
COc1ccc(/C=C(\C#N)c2nc3ccccc3[nH]2)cc1O	inactive
O=C(Nc1ccccc1)c1ccccc1O	inconclusive: 1.26 µM [activator, partial curve, poor fit]
O=C1ON=C(c2ccccc2)/C1=C/c1ccccc1	inconclusive: 28.2 µM [activator, single point]
O=C(O)C1CCC(N2C(=O)C3C4CCC(C4)C3C2=O)CC1 (stereo unspecified)	inconclusive: 5.01 µM [activator, single point]
CC(c1ccccc1)N1C(=O)c2ccc(C(=O)NCc3cccnc3)cc2C1=O (stereo unspecified)	inconclusive: 5.01 µM [activator, single point]
COc1ccc(C(=O)Nc2ccc(S(=O)(=O)Nc3nccc(C)n3)cc2)cc1[N+](=O)[O-]	inconclusive: 28.2 µM [activator, single point]
CN(CC(=O)Nc1ccccc1C(F)(F)F)C(=O)CC1OC(=O)c2ccccc21 (stereo unspecified)	inactive
COC(=O)C1=C(C)N(c2ccc(F)c(Cl)c2)C(=O)C1	inactive

SMILES	Potency
CC(NCc1ccc(S(N)(=O)=O)cc1)C(=O)Nc1cccc(Cl)c1 (stereo unspecified)	inconclusive: 2 µM [activator, single point]
S=C1NCCc2ccccc2C1c1ccccc1 (stereo unspecified)	inactive
CCNS(=O)(=O)c1ccc(CCC(=O)N2CCc3ccccc3C2)cc1	inactive
Cc1[nH]c(=S)c(C#N)c(C)c1Cc1ccc(Cl)cc1Cl	inactive
CSc1nnc(-c2sc3cc(Cl)ccc3c2Cl)n1C	inconclusive: 0.501 µM [activator, full curve, poor fit]
CC1CCCN(C(=O)c2ccc([N+](=O)[O-])o2)C1 (stereo unspecified)	inactive
Cc1cccc(C)c1N=C1NN=C(c2ccccc2F)CS1	inactive
COc1cc(C(=O)Nc2ccc(S(=O)(=O)N3CCOCC3)cc2)c([N+](=O)[O-])cc1OC	inactive
O=[N+]([O-])c1ccc(N2CCN(c3ccc(O)cc3)CC2)cn1	inconclusive: 0.501 µM [activator, full curve, poor fit]
CCOC(=O)C1=CN(Cc2cccc(F)c2)S(=O)(=O)N(C)C1c1cccc(OC)c1 (stereo unspecified)	inactive
CC1Cc2cc(S(=O)(=O)N3CCC(C(=O)N(C)Cc4ccco4)CC3)ccc2N1C(=O)C1CCC1 (stereo unspecified)	inconclusive: 1.26 µM [activator, single point]
O=c1onc(-c2ccc(Cl)cc2Cl)n1-c1cccnc1	inconclusive: 3.55 µM [activator, single point]
FC(F)(F)c1cc(CCN2C(=S)NC[C@@H]2CC2CCCCC2)cc(C(F)(F)F)c1	inactive
CN(C)c1ccc(NC(=O)Nc2cccc3ccccc23)cc1	inconclusive: 8.91 µM [activator, single point]
O=C(c1ccc(CS(=O)(=O)c2ccc(Br)cc2)o1)N1CCOCC1	inactive
Cc1cccc(C)c1OC(=O)CSc1nnc(-c2ccccc2)o1	inconclusive: 20 µM [activator, single point]
CC(=O)Nc1ccc2sc(NC(=O)CN3CCOCC3)nc2c1	inconclusive: 5.01 µM [activator, single point]
S=c1[nH]nc(-c2ccco2)n1Cc1ccccc1	inactive
CN(CCN1CCOCC1)C(=O)c1cc(COc2ccc(F)c(F)c2)on1	inconclusive: 2 µM [activator, single point]
COc1ccccc1NC(=O)COC(=O)C1CCCC1	inconclusive: 2.82 µM [activator, full curve, poor fit]
Cc1cc(C)c[n+](-c2[nH]c(=O)sc2/C=N/N=C(\[O-])c2cccnc2)c1	inconclusive: 2.51 µM [activator, single point]
CN1CCN(C(=O)c2cc(COc3ccc(F)cc3Cl)on2)CC1c1ccccc1 (stereo unspecified)	inconclusive: 0.631 µM [activator, full curve, poor fit]
COc1cc(NC(=O)CCc2nnc3ccc(NCc4ccco4)nn23)cc(OC)c1	inconclusive: 5.01 µM [activator, single point]

Looked up one by one from above (3):
SMILES	Potency
O=c1onc(-c2ccc(Cl)cc2Cl)n1-c1cccnc1	inconclusive: 3.55 µM [activator, single point]
COC(=O)C1=C(C)N(c2ccc(F)c(Cl)c2)C(=O)C1	inactive
O=[N+]([O-])c1ccc(N2CCN(c3ccc(O)cc3)CC2)cn1	inconclusive: 0.501 µM [activator, full curve, poor fit]

Source: PubChem BioAssay AID624291 (National Center for Advancing Translational Sciences (NCATS), 2012)
